# Percent effect of library compounds

Data taken from ChEMBL document CHEMBL3988442, “University of Dundee, Small-Polar-MMV Screening Library” (2021).

T. brucei: 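Whole-parasite assay of Trypanosoma brucei over 72 hours; the read-out is not stated. Concentration: 30 µM. Higher reads as stronger inhibition (inferred: compounds with an IC50 in retests scored well above the rest). Values scatter widely below zero; nearly all retest evidence comes from the higher of the two concentrations used. Size under these conditions: about 64,000 compounds, about 940 of them at 50% or above in at least one test.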
Leishmania in macrophages: 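Cell assay of Leishmania donovani living inside macrophages; the read-out is not stated. Concentration: 30 µM. Higher reads as stronger inhibition (inferred: compounds with an IC50 in retests scored well above the rest). About 69,000 compounds were tested under these conditions; 1.5% (about 1,000) showed 50% or more at least once.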
Toxoplasma: 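Assay of Toxoplasma gondii numbers, read through their beta-galactosidase reporter with a colour substrate. Compounds at 10 µM. Higher reads as fewer parasites (inferred from which compounds were picked for retests). Of about 67,000 compounds tested this way, about 260 (0.38%) reached 50% or more in at least one test.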

Values are the deposited “Percent Effect”, in %. The record does not define 0% and 100%; most values in the screen are far below 50% and negative numbers occur (in some assays of this library far below -100). This is an unselected part of the compounds tested.

- CC(CNC(=O)c1ccon1)Oc1cccc(Br)c1 (centres undefined) | T. brucei: -16.47%; Leishmania in macrophages: 9.508%; Toxoplasma: -13.24%
- Cc1ccc(NC2CCN(C(=O)c3cc(C)no3)CC2)nn1 | Leishmania in macrophages: 21.25%; Toxoplasma: 5.574%
- O=C(NCCc1cccnc1)c1ccc2nccn2c1 | T. brucei: -39.85%; Leishmania in macrophages: 14.78%; Toxoplasma: -13.76%
- Cc1ccc(CN(C(=O)NC2CCS(=O)(=O)C2)C2CC2)o1 (centres undefined) | T. brucei: -34.94%; Leishmania in macrophages: -0.2926%; Toxoplasma: -5.307%
- CCc1nnc(CN(CC)C(=O)C2CCC(=O)N(C3CCCC3)C2)o1 (centres undefined) | T. brucei: 30.81%; Leishmania in macrophages: 10.51%; Toxoplasma: -7.104%
- CC(O)C1CCN(C(=O)Nc2nc(-c3ccccc3)ns2)CC1 (centres undefined) | T. brucei: -234.9%; Leishmania in macrophages: 0%; Toxoplasma: -5.996%
- O=C(CN1CCOC(Cn2cccn2)C1)NC(C1CC1)C1CC1 (centres undefined) | T. brucei: -10.77%; Leishmania in macrophages: 10.51%; Toxoplasma: 0.1335%
- [H][C@]12CN(C(=O)c3ncoc3C)CC[C@@]1(O)CCN(C(=O)N1CCCC1)C2 | T. brucei: 35.33%; Leishmania in macrophages: 15.47%; Toxoplasma: 10.84%
- CC(=O)c1cc(Br)cc(F)c1OCC(=O)NC1CC1 | T. brucei: -27.62%; Leishmania in macrophages: 7.919%; Toxoplasma: 2.666%
- CN(C)c1ncccc1CNS(=O)(=O)c1ccccc1Cl | Leishmania in macrophages: 21.01%; Toxoplasma: -6.248%
- COc1ccc(C(O)CN2CC(n3nc(C)cc3C)C2)cc1 (centres undefined) | T. brucei: 37.29%; Leishmania in macrophages: 33.21%; Toxoplasma: -6.921%
- Cc1noc([C@@H]2C[C@H](NC(=O)NC(C)C)CN2C)n1 | T. brucei: -6.344%; Leishmania in macrophages: 10%; Toxoplasma: -3.998%
- Cl.O=C(NCCn1nc(C2CCNC2)c2cccnc21)c1ccccc1 (centres undefined) | T. brucei: 3.701%; Leishmania in macrophages: 11.6%; Toxoplasma: 4.962%
- CC1CCCN(C(=O)C2CCN(c3snc4ccccc34)CC2)C1 (centres undefined) | T. brucei: 18.63%; Leishmania in macrophages: 10.48%; Toxoplasma: 2.786%
- COc1cc(C(=O)N2CCCC(n3cncn3)C2)ccc1C (centres undefined) | T. brucei: -19.23%; Leishmania in macrophages: 13.26%; Toxoplasma: -8.162%
- CC(C(=O)NCCCN1CCN(c2ccccc2)CC1)n1cncn1 (centres undefined) | T. brucei: 15.71%; Leishmania in macrophages: 29.13%; Toxoplasma: 1.264%
- Cc1c(C(=O)NCC2CCN(Cc3c[nH]cn3)C2)[nH]c2ccccc12 (centres undefined) | T. brucei: -16.23%; Leishmania in macrophages: -2.782%; Toxoplasma: -8.169%
- CN(C)[C@@H]1CCN(C(=O)c2cccn2C)[C@H]1Cc1cnn(C)c1.O=C(O)C(F)(F)F | T. brucei: -108.7%; Leishmania in macrophages: -11.12%; Toxoplasma: -13.28%
- COCCN1CC[C@@H](OC)[C@@H]1Cc1ccccc1.O=C(O)C(F)(F)F | T. brucei: -19.82%; Leishmania in macrophages: -2.595%; Toxoplasma: 1.055%
- CCc1ncc(C(=O)N(CCOC)Cc2ccccc2F)cn1 | T. brucei: 1.72%; Leishmania in macrophages: 23.88%; Toxoplasma: 3.17%
- Cc1cccc(CSc2ncc(Br)c(C(=O)O)n2)c1 | T. brucei: -21.04%; Leishmania in macrophages: -33.29%; Toxoplasma: -0.2472%
- CC(C)N1CCN(C(=O)c2[nH]nnc2Nc2ccccc2F)CC1 | T. brucei: -52.58%; Leishmania in macrophages: -14.07%; Toxoplasma: 13.44%
- CN(C)CCn1c2c(ccc1=O)CCN(Cc1ccncc1)CC2 | T. brucei: -7.718%; Leishmania in macrophages: 17.9%; Toxoplasma: 3.305%
- COCC1CN(c2ccc(C#N)c(Cl)c2)CCO1 (centres undefined) | T. brucei: -51.6%; Leishmania in macrophages: 27.15%; Toxoplasma: 1.011%
- COC(=O)NCC(=O)NCC(C)(C)c1cccc(Br)c1 | T. brucei: 0.5155%; Leishmania in macrophages: -6.304%; Toxoplasma: -5.405%
- [H][C@]12CN(C(=O)c3cnn(C)c3)CC[C@@]1(O)CCN(C1CCCCC1)C2 | T. brucei: -54.53%; Leishmania in macrophages: 3.888%; Toxoplasma: 0.1952%
- CN1CC2(CCNCC2)COc2ccccc2S1(=O)=O | T. brucei: -3.556%; Leishmania in macrophages: 20.76%; Toxoplasma: 18.12%
- Cc1cnn(CCNCC(O)COc2cc(Cl)ccc2Cl)c1 (centres undefined) | Leishmania in macrophages: 18.45%; Toxoplasma: 21.62%
- [H][C@@]12CN(c3ncccn3)C[C@@H](C(=O)NCCOC)[C@]1([H])CCO2 | T. brucei: -0.7291%; Leishmania in macrophages: 9.036%; Toxoplasma: 2.714%
- NS(=O)(=O)N1CCc2ccc(NC(=O)CC(F)(F)F)cc21 | T. brucei: -20.35%; Leishmania in macrophages: 31.91%; Toxoplasma: 0.6321%
- O=C(NCC(O)COc1ccc(F)cc1)C1(c2ccc(F)cc2)CC1 (centres undefined) | T. brucei: -35.71%; Leishmania in macrophages: -16.14%; Toxoplasma: 1.406%
- O=C(NCc1ccccn1)Nc1cc(C(F)(F)F)c[nH]c1=O | T. brucei: 3.418%; Leishmania in macrophages: 14.9%; Toxoplasma: 6.893%
- O=C(O)C(F)(F)F.[H][C@@]12CCN(c3ncccn3)C[C@]1(C(=O)NCc1ccco1)CCO2 | T. brucei: -11.08%; Leishmania in macrophages: 1.581%; Toxoplasma: 5.408%
- O=S(=O)(NCCn1ccc(-c2cccs2)n1)C1CC1 | T. brucei: -14.58%; Leishmania in macrophages: 27.81%; Toxoplasma: 20.1%
- Cc1noc(C)c1CCC(=O)N[C@@H]1CCC[C@@H](Oc2cccnc2)[C@@H]1O | Leishmania in macrophages: 20.04%
- CSCC(CCO)NC(=O)Nc1ccc(C)cc1Br (centres undefined) | T. brucei: -23.45%; Leishmania in macrophages: -27.54%; Toxoplasma: -21.67%
- O=S(=O)(c1ccccc1)N1CCCN(CCCn2ccnc2)CC1 | T. brucei: -25.56%; Leishmania in macrophages: 52.87%; Toxoplasma: 1.435%
- Cc1nn(C)c(C)c1C1COCCN1c1ncncc1Br (centres undefined) | T. brucei: 5.549%; Leishmania in macrophages: 5.234%; Toxoplasma: -45.7%
- CNC(=O)c1ccc(-c2ccc(CNC(=O)COC)cc2)nc1C | T. brucei: -21.58%; Leishmania in macrophages: 22.98%; Toxoplasma: -18.6%